The Ki is a measure of affinity in units of concentration, obtained from inhibition or displacement.

Protein sequences, listed by entry. Tags and fused reporters are not part of them.
UniProt P31645, whole entry: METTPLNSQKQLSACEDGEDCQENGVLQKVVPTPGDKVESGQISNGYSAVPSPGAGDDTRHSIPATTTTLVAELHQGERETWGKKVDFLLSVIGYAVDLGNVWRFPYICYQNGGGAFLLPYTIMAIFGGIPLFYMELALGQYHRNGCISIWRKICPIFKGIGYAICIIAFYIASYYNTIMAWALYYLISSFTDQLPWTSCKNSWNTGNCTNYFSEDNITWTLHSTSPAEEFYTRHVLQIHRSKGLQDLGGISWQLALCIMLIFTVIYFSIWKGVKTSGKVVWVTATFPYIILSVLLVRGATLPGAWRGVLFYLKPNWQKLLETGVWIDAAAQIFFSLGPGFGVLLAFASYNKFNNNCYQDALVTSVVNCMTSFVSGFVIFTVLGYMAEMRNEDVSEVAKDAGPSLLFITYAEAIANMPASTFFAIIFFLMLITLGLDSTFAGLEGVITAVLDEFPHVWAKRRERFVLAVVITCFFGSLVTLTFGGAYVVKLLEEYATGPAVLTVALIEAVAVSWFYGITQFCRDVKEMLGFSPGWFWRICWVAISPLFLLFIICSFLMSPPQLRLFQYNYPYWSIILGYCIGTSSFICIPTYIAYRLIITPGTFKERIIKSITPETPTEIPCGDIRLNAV
UniProt P23975, whole entry: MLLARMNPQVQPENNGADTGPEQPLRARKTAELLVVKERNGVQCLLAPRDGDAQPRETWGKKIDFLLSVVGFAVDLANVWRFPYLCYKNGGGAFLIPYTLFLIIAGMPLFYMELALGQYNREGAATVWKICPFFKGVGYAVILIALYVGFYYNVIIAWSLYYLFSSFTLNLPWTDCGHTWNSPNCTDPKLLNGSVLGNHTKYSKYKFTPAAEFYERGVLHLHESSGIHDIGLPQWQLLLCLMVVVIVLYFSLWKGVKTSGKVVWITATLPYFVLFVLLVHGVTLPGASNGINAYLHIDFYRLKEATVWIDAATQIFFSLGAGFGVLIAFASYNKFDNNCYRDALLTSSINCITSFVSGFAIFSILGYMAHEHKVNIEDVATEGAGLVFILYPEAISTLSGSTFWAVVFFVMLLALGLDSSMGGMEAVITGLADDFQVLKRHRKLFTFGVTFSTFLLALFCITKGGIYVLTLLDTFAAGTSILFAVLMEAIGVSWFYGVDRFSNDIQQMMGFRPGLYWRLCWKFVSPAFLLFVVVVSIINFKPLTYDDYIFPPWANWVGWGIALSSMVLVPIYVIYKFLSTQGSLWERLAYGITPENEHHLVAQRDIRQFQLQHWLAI

Bounds are passed on as bounds.

Results on four compounds are retold here after patent US7994209B2, “3-phenoxymethylpyrrolidine compounds” (Theravance, Inc., priority 2009, dated 2011).

Assay [1] deals with T1, hSERT (Homo sapiens, UniProt P31645). The assay can be described thus: hSERT neurotransmitter uptake assay (3H-5-HT), Assay 2. Also on record: expressed in transfected cells; host or cells: HEK-293. Format: cell-based. Particulars: serotonin reuptake inhibition, 3H-5-HT uptake, HEK-293 hSERT cells (values without asterisk); read-out: SERT pIC50 (converted). How it is done: (§1) Cells were harvested by centrifugation at 1100 rpm for 5 minutes, washed once by resuspension in PBS, then centrifuged. The supernatant was discarded and the cell pellet resuspended, by gentle trituration, in room temperature Krebs-Ringer bicarbonate buffer containing HEPES (10 mM), CaCl2 (2.2 mM), ascorbic acid (200 μM) and pargyline (200 μM), pH 7.4.
(§2) Test compounds were incubated for 30 minutes at 37° C. with the respective cells, prior to addition of radiolabeled neurotransmitter, ^3H-5-HT (20 nM final concentration), ^3H-NE (50 nM final concentration) or ^3H-DA (100 nM final concentration).

Assay [2] has as its target T2, hNET (Homo sapiens, UniProt P23975). The assay can be described thus: hNET neurotransmitter uptake assay (3H-NE), Assay 2. Particulars: norepinephrine reuptake inhibition, 3H-NE uptake, HEK-293 hNET cells (values without asterisk); read-out: NET pIC50 (converted). The arrangement: expressed in transfected cells; host or cells: HEK-293. Type of assay: cell-based. As to the method: as §1, §2

The target in assay [3] is T2, hNET. The assay can be described thus: hNET membrane radioligand binding assay (3H-nisoxetine), Assay 1.
Assay [4] deals with T1, hSERT. In words: hSERT membrane radioligand binding assay (3H-citalopram), Assay 1. The following applies: SERT pKi, hSERT HEK-293 membranes, 1.0 nM 3H-citalopram; values given as lower bounds.

Consider `Cc1c(Cl)cccc1O[C@H](C1CC1)[C@H]1CCNC1` [Example 15, (S)-3-[(R)-(3-Chloro-2-methylphenoxy)cyclopropylmethyl]pyrrolidine], for which the IC50 at hSERT [1] and at hNET [2] was ≤ 10 nM in each case. In addition, the inhibitory constant (Ki) at hNET [3] and at hSERT [4] was ≤ 10 nM throughout.
In the case of `Cc1c(Cl)cccc1O[C@@H](C1CC1)[C@@H]1CCNC1` [Example 16-13, (R)-3-[(S)-(3-Chloro-2-methylphenoxy)cyclopropylmethyl]pyrrolidine], the Ki on hNET [3] is ≤ 100 nM; on hSERT [4] it was ≤ 10 nM.
As for `Cc1c(Cl)cccc1O[C@H](C1CC1)[C@@H]1CCNC1` [Example 16-14, (R)-3-[(R)-(3-Chloro-2-methylphenoxy)cyclopropylmethyl]pyrrolidine], the IC50 at hSERT [1] was ≤ 10 nM; on hNET [2], ≤ 100 nM. For the same compound, the Ki on hNET [3] and at hSERT [4] was ≤ 10 nM in each case.
As for `Cc1c(Cl)cccc1O[C@@H](C1CC1)[C@H]1CCNC1` [Example 16-15, (S)-3-[(S)-(3-Chloro-2-methylphenoxy)cyclopropylmethyl]pyrrolidine], the IC50 on hSERT [1] and on hNET [2] was ≤ 10 nM each time. Further, the Ki on hNET [3] and at hSERT [4] was ≤ 10 nM throughout.
